Hit rate of the full screen: of about 52,000 sequences, about 210 (0.4%) were called active.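 Rule for the calls: active = gene whose silencing raises cell survival under the drug, median off-target-corrected z-score across its silencing RNAs 2 or more; inactive = the rest.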 The list shows a part of the results.
Assay: Resistance to Poly (ADP-Ribose) Polymerase inhibitor: Gene Identification via Genome-wide siRNA Screen
Details: mouse BRCA2 R2336H ES cells, olaparib, CellTiter-Glo viability; stronger effect = higher value
Procedure, shortened: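 Mouse BRCA2 R2336H ES cells were reverse-transfected with siRNA (20 nM final), treated at 48 h with 500 nM olaparib, and read by CellTiter-Glo after 72 h. Scores: MAD-based z per siRNA, median per gene, seed off-target correction.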

| Sequence | z-score |
| --- | --- |
| CCCUGGGAGUUGAAUUGUUTT against Aqp6 | inactive: 1.98 |
| GGUGUUUACUUCCUCAGAATT against C80638 | inactive: -0.494 |
| GGCAACAGCAAUGACAUCCTT against Dbnl | inactive: -0.324 |
| GCUGGCCAAAUUCUGUGGUTT against Psph | inactive: 0.299 |
| CCUGAUCAAGGUGAAACGGTT against LOC547431 | inactive: -1.06 |
| GGAAAAAGAAAGAAGGUUCTT against 4930483J18Rik | inactive: -0.881 |
| GCCUUGUGUGCUGUCCUCUTT against Ly6g5c | inactive: 2.27 |
| GGUGAAUGCAAGAUCACCUTT against Myl1 | inactive: 0.107 |
| GGAGAAGACGGCUAAGCUCTT against D7Bwg0611e | inactive: -0.297 |
| GGAGGUAUUCAAGAUUUGATT against Sec10l1 | inactive: -1.14 |
| GGAGGAGCGGUUUUAUCAGTT against D0H8S2298E | inactive: 1.61 |
| CCCGUACAUUGAGUGCAAUTT against 6330403K07Rik | inactive: 2.67 |
| GGCAGCAGCAAGUUUCUUCTT against Rnpc1 | inactive: -0.0723 |
| GCGAGAUCACUUUCCAAUCTT against Ddr2 | inactive: 1.23 |
| GGUAUUCGAGCAGAUAUAUTT against 9130218O11Rik | inactive: 0.332 |
| GCUUUUCCGCUUCUACCGGTT against Nrp | inactive: 0.305 |
| GGUAGAACUUAUUGUGGACTT against Ly6f | inactive: -0.282 |
| GGAACUGUCAUGACAUUUCTT against Ddt | inactive: 0.0607 |
| GGAUGUGGUUCUUGAACAUTT against 3110023E09Rik | inactive: -0.289 |
| CGUAUACAAAUGUCCGGUATT against Itga11 | inactive: -0.122 |
| GGUAUUUUUACAUUCCCUUTT against Slc39a11 | inactive: -0.968 |
| GGGAGAGCGUAAGAUCUUUTT against Tln1 | inactive: -0.476 |
| GGCUUGGUUUUAAAUGAUGTT against Il17rd | inactive: -1.92 |
| GGAAGCGUAAAUAAGUGUCTT against Emp2 | inactive: 0.844 |
| CCAUACGAGUGACCAGUUGTT against Ctbp1 | inactive: -0.567 |
| GGAGUCCUUGGGAUAAUAATT against D930016N04Rik | inactive: -1.02 |

| Sequence | z-score |
| --- | --- |
| GGGAAGUGACAUAUUCUCGTT against Brf2 | inactive: -0.676 |
| CCCAUUUCCGGAGCUCACUTT against Grb10 | inactive: 1.29 |
| GGGAUUACCACCCAUCCUATT against Atp5b | inactive: 2.37 |
| CGGCUGAAGACUGAAAACGTT against Hnrpl | inactive: 2.53 |
| GCAGAUAUGACGAUUAAAUTT against Pafah1b1 | inactive: -0.63 |
| CCAGAUACUUCUCAUGGCGTT against B230317C12Rik | inactive: -0.357 |
| CCUUCAGACCUCCUUAUUATT against Hgd | inactive: -1.3 |
| GGUUACGUGUUUGUAUCUATT against Hig1 | inactive: 0.593 |
| GGUUCUAGGGAAAAAAACATT against Tnrc4 | inactive: 0.887 |
| GGUCUUGAAACUCUGAAAGTT against Sult1a1 | inactive: 1.58 |
| GGGCUAUCGGUUGACAAAUTT against Riok2 | inactive: -0.301 |
| GGUUCUCCAUUCUGUUUACTT against Slc35d1 | inactive: 0.505 |
| GGCCUCCAGUGGAUAAUAGTT against BC013667 | inactive: -1.07 |
| GGAACAUUUUGGAAAUGACTT against Fbxo25 | inactive: 0.308 |
| GGAGAGGAAAAUUGUAUUUTT against Alox12 | inactive: 0.518 |
| GGCUAAGGGUGGGAAAGAATT against 1700007H16Rik | inactive: -1.69 |
| GGAGGAGAUCAAAAAAAGATT against Cfl2 | inactive: -0.709 |
| GCAGAUUAACAUCUUCUUUTT against Dncic2 | inactive: -0.823 |
| GGUAGUAUCCCAGUUCCAUTT against 2810432L12Rik | inactive: -0.445 |
| GGAUAUUUGUCUUCUGGGUTT against AY026312 | inactive: 1.01 |
| GGCUUGUCCUGGCAUGAUGTT against Ptprn | inactive: -1.15 |
| GGAGAAAAUGGACAGUCUATT against Twist1 | inactive: -0.576 |
| GGAUCUUGUUGGUUAUCGATT against Syn3 | inactive: 0.359 |
| CGGCUUAAAUUGACAUUUCTT against Glul | inactive: -0.549 |
| GCCUCUACUGGUUAUUUAATT against 4930477M19 | inactive: 0.571 |
| GCAUGAAGGACUUUCGAAGTT against 5730437N04Rik | inactive: -0.439 |

| Sequence | z-score |
| --- | --- |
| GGAACAAGGAAGUUACAGGTT against Olfr30 | inactive: 0.637 |
| GGCAAAAAUACUUUGUCGGTT against Alox5ap | inactive: 0.576 |
| GGACAUGAAAGUUGACCUGTT against Mrps31 | inactive: 0.0913 |
| CGUGAGGUUAUGAUGUAUUTT against LOC432723 | inactive: -0.681 |
| GGAUAUUAUUGUUCCCACUTT against Olfr907 | inactive: 0.259 |
| GCCCAGAUACAACCAGACUTT against AW046014 | inactive: -0.783 |
| GCUAAGGACUUUUGUUGACTT against G3bp | inactive: -0.398 |
| CCAACAAUCAUGGUUAAACTT against 4732429D16Rik | inactive: 0.926 |
| GGUGGAAUGAAAGAACAAGTT against Klhl13 | inactive: -1.39 |
| GGCUGAAGACACUGAACACTT against Olfr643 | inactive: -3.35 |
| GGAUGGAGACACCAAUUUUTT against Rdh9 | inactive: 0.487 |
| GGCUUGACUGCUAUUUUAGTT against Csna | inactive: 2.01 |
| UGAACAAACUUUCAGCCUCTT against Ugt2b5 | inactive: -1.6 |
| GGAGAAUUUGGAAAGUGAGTT against Rnf150 | inactive: -1.33 |
| GGAAUGGAUCCUGAUGAUATT against 5730406I15Rik | inactive: -1.6 |
| GCACUCAAUAUAGCUUUAATT against Olfr1489 | inactive: -1.77 |
| GCGAUUUGUCAAAGAGCUGTT against Pcyox1 | inactive: -0.447 |
| GGAGCAACUGUUUUAAAAGTT against Leprel1 | inactive: 0.118 |
| GGUACUACAAAAGAGAGCUTT against Ubr1 | inactive: 0.157 |
| GCUUAAACCGCCUAUGUUCTT against 1810004F21Rik | inactive: 0.928 |
| GGAUCAUCUGCAUAAUAGATT against 4930517K11Rik | inactive: -0.0227 |
| GGAUUUAACCCUGAGAUACTT against Grpel2 | inactive: 0.0521 |
| GGGUGAUGAUGGAUUCUGUTT against Eef1g | inactive: 1.49 |
| GGAAAUUUGGAAAUUGCCUTT against Hnt | inactive: 0.652 |
| GGUUUUUUUGAGUUUCAGGTT against Lars | inactive: 0.544 |
| GGAACAGCAGCCUGAAUGATT against B4galt5 | inactive: 0.809 |

Given tab-delimited: part of the list above
Sequence	z-score
GGCAAAAAUACUUUGUCGGTT against Alox5ap	inactive: 0.576
GGAUGGAGACACCAAUUUUTT against Rdh9	inactive: 0.487
GGCUUGACUGCUAUUUUAGTT against Csna	inactive: 2.01
GGAGCAACUGUUUUAAAAGTT against Leprel1	inactive: 0.118
GGAUCAUCUGCAUAAUAGATT against 4930517K11Rik	inactive: -0.0227

(next part)

| Sequence | z-score |
| --- | --- |
| GGAAGAACUAAAGAGUCUUTT against Elavl2 | inactive: -0.556 |
| CCCUGACCUUGUGGUAGAATT against 0610012D14Rik | inactive: -1.13 |
| GGUGACAACCAUGAUCUCCTT against C1qtnf2 | inactive: 0.721 |
| GGUUUGAAAUCAGCAUGAUTT against A530065I17Rik | inactive: -0.647 |
| GGAUCAUAUAUGAAGCACATT against Mybl1 | inactive: 1.02 |
| GGACAUUAGCCAACACAUCTT against 1700010M22Rik | inactive: 0.249 |
| GCGACAAGGCAAAGCUAGATT against 1110018J12Rik | inactive: -1.73 |
| GGAUGGAGUUCACAUUUUCTT against 2700082D03Rik | inactive: -3.05 |
| CGGGAAGUAGUGCAACACCTT against Taldo1 | inactive: 0.923 |
| GGGAGUGACUCAGAUCGAUTT against Atp6v1c1 | inactive: -0.324 |
| GGAGCUGAUAAAUCUGAACTT against Dhrs7 | inactive: -0.529 |
| GGAAGUCGAGUUGAAAUCGTT against Hrsp12 | inactive: 0.674 |
| CAGGGCUCACAGAGUCUCCTT against Olfr190 | inactive: -0.116 |
| GCUGUAUGGCUAAGCAGUGTT against Olfr113 | inactive: 5.23 |
| CCCAUGUUCGAUGGGAAAGTT against Adprt1 | active: 0.293 |
| GGCAGAAACCAAGUUGGCUTT against Diablo | inactive: 1.05 |
| CCCAUAUUUGUGGUAAACATT against Gm78 | inactive: 1.15 |
| GGACCUGGUUCAGGUAUCATT against Col6a3 | inactive: -2.4 |
| GGUACCGGAGUCUGAAACATT against Drp2 | inactive: -2.78 |
| GGGCAAGAUUAAGACUUAUTT against Armcx1 | inactive: -1.63 |
| GGCAACAUGACAAUUGUGGTT against Olfr1215 | inactive: 1.6 |
| GGUUCGUUUUCAACUGGCGTT against 2010007H12Rik | inactive: -0.413 |
| GGUCACAGAUGAAAUUAUGTT against Ltbr | inactive: 0.0691 |
| GCCUUGGCGACAAAGCUAATT against 4930506M07Rik | inactive: -0.0619 |
| CCUCUGCUUUAUGAUCAACTT against Gm867 | inactive: 0.531 |
| CCAUCAAUCCUAAUGCUUATT against 4933417A14Rik | inactive: 0.582 |

— PubChem BioAssay AID1347423 (Functional Genomics Laboratory (NCATS/FGL), 2020)
